Experimental data as given in the supplement of paper PMC3334620.
The full ranking holds about 33,000 sequences; the median of “E-score (-0.5 to 0.5)” is about -0.0014, and the highest 2% start at about 0.25. The list shows a part of the results.

These sequences were tested against T1, Cad1 (UniProt P24813) (assay: PBM E-score (8-mer binding enrichment) (E-score (-0.5 to 0.5)); higher = stronger / more preferred TF binding). Conditions: protein concentration: 100 nM; construct: GST-full length.
T1 sequence: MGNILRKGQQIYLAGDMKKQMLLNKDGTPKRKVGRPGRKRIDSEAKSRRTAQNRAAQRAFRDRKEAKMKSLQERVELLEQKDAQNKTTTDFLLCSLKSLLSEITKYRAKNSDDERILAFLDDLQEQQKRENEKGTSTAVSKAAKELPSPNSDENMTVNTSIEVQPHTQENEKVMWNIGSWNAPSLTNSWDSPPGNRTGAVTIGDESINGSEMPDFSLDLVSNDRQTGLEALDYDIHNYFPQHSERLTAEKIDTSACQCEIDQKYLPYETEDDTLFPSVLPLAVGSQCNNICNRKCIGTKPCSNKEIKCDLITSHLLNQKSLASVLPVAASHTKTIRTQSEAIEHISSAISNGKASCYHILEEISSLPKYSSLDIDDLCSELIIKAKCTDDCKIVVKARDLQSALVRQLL
Summary of the method: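 Using PURExpress in vitro transcription/translation, GST-tagged yeast transcription factors were made in full-length or DNA-binding-domain form. These were applied at about 100-200 nM to double-stranded universal all-10-mer Agilent arrays, and bound protein was detected with fluorescent anti-GST. Scans were normalised with masliner before the Universal PBM Analysis Suite assigned E-scores to ungapped eight-base words pooled with their reverse complements.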

Sequence	PBM E-score
CCCAGCGG	-0.264
ACAGTCCG	-0.133
ACCCTATG	-0.0459
CGTATTAA	0.0596
GCGGGGCC	-0.198
CAGCCCAC	-0.0145
ACTCTCGA	0.141
AGCTAGGG	0.0124
CTTCTTAC	0.0798
AAAGCTGT	-0.011
GCCAATAA	0.133
ACTAAGTC	0.103
TATAAAGA	-0.0447
CCCGGCCC	-0.27
ACTATCGC	0.218
AACCTACC	-0.252
AACCATCC	0.0325
AATACGAG	0.1
AATGAACG	0.0563
CAGGCTCC	-0.0824
AACAAAAT	0.123
AGGGCGCC	-0.1
GATATAGA	0.106
CATACGGC	0.0544
AAACCGTA	0.0364

Sequence	PBM E-score
AATCATCC	-0.0051
ATTCGCTA	-0.172
CGATAGCA	-0.147
ATGATCTA	0.124
CTCATCAA	-0.0643
ACGGTTGG	-0.114
CTCAACCA	-0.0185
CGACCCCA	-0.0633
AGGCTAGA	-0.244
CTGTCTGC	-0.166
CCTTCTAG	-0.162
ACCAGTAC	0.096
ACTAGGCT	-0.0722
CACGCACC	0.0248
AGTGGAAC	-0.0497
CTGGGTAC	-0.194
AGCGAACC	0.0061
AGGTCACT	-0.145
ACGGTAGG	-0.208
TCCGTAGA	-0.0821
TAAACCTA	-0.00574
CAGGCTTA	0.0113
GAGGTTGA	-0.0429
CGGTTAAA	-0.148
ACTGCATC	-0.00501

7 records drawn at random from the list so far:
Sequence	PBM E-score
ACTAGGCT	-0.0722
CGACCCCA	-0.0633
ACGGTAGG	-0.208
TCCGTAGA	-0.0821
GAGGTTGA	-0.0429
ACGGTTGG	-0.114
AGTGGAAC	-0.0497

Later entries

Sequence	PBM E-score
ATTATAAA	0.276
CCTAGCGA	-0.123
CAGACCAC	-0.00956
TACCGAGA	0.00984
AAGCCCCG	-0.153
AATTTGAC	0.24
GACTCAGA	0.0638
GCAGAGAC	-0.268
GAGTACGC	-0.178
TTGAGCAA	-0.0596
AATCCCTG	-0.0461
ATGAGGTG	-0.0935
GCAGGGTA	-9e-05
TGGACACA	0.0108
AGTCGATG	-0.0154
AAGCCAGT	-0.12
ACTGGAAC	0.0295
TTTATAAA	0.261
ATCGCTCG	0.0614
ACGATAAC	0.166
ACTACACT	0.0645
GAGGCAAA	0.068
CGATGATC	0.0807
ATGTCACG	0.0134
AGGGAGGC	-0.128

Sequence	PBM E-score
ACTCGCGG	0.0242
AAGACGAG	-0.224
GTGGCCAC	0.00829
AGCGTTGA	-0.0823
GACGGTGC	0.0564
CTTCACGA	-0.199
AGTATCGC	0.0762
AAAGAACT	0.0842
GCATGGTA	-0.0219
CCATATGA	-0.0943
ATAGAGGC	-0.0248
ATTCAGGA	-0.00566
TATTCGCA	0.0238
CGAACAAA	0.28
CTTTTCGA	0.0685
GTATCGAA	0.09
ATCTCCTG	-0.00761
GACCTCAA	0.0396
CAGCGAAG	-0.103
CCCACCGC	-0.019
TCTCTAAA	-0.202
CAACCGAG	-0.042
GCACGCCA	-0.056
ATTGTTCG	0.237
GCTCGAAA	0.208

Sequence	PBM E-score
GCGGCGCC	0.159
CCTCCTGC	-0.225
AACCTTGG	-0.168
CGCATTAA	0.193
ACCACCGA	-0.0327
CGACAAAA	0.136
CTGGACAA	0.00868
CAACCCAG	-0.0873
AGAGGACC	-0.231
CTTTTGGA	-0.102
TCCAGAGA	-0.0446
CCGATACC	-0.0535
TCAATAAA	-0.0393
AGTGCGAT	-0.102
TCTGCCCA	-0.17
GGTTTTGA	0.0367
GGTTCAGA	-0.0239
ACCATCTC	-0.00964
CCCTCACA	-0.0201
ATTAATAG	0.275
AGTCGCAA	0.132
CTCAAAGC	0.0156
CCCACCAA	-0.0273
AAGGCCCT	0.0605
TCACCTAA	0.0992

Sequence	PBM E-score
GAATGTGA	0.0848
CATTCGCA	-0.056
AGTTGGAA	-0.0684
AATCGGTA	0.0304
ATCAGTTC	-0.0834
AGATCCAG	0.114
AATCGCGT	0.107
CTCCACTA	0.138
GAGAGCTC	-0.189
GAAAGCAA	0.184
ACACGATA	0.0823
GACCTAAA	-0.0239
AGGTAGGA	0.0957
CTAGGGAG	-0.233
TGGTCCAA	-0.199
TGAGCGAA	0.123
AACCCCGA	0.0275
GGGCCCCC	-0.44
ACCTTAGC	-0.019
CCGTAAGA	-0.0747
CTAGAACA	0.127
AACGTCGT	0.144
CTGGCTGA	-0.00206
GTGTAGTA	0.0567
AGCGTACG	0.00701

At a glance, part of the list above.
Sequence	PBM E-score
CGATAGCA	-0.147
ATGATCTA	0.124
CTCATCAA	-0.0643
ACGGTTGG	-0.114

The list continues:

Sequence	PBM E-score
AGGGTCAT	-0.269
CGATCGTC	0.124
CAGCGTAA	0.0938
CCACAGTC	-0.203
AAACATAT	0.25
AAACTGGA	-0.0639
CATTACAA	0.277
TCAACCGA	0.0888
CAGTATGG	-0.0483
GTTGTGGA	0.00861
CGAAAAAC	0.0924
GGATGCAA	-0.156
AAGTGCCA	-0.0312
CGAGCATA	-0.0892
GTAACTGA	0.00925
CAAGGCTC	-0.318
CCCGTCCC	-0.033
AGACCACA	-0.0838
CCGAATCG	0.0646
AGAAGAGC	-0.0404
ACTACGCG	-0.12
GAACTGGC	0.037
AATTATGT	0.167
AAACGTCG	0.0516
GCAGTGGC	-0.0938

Sequence	PBM E-score
CACCAGTA	0.136
ACCGTTCC	0.103
CCGTGAGC	-0.158
AGAGACGA	-0.00272
ATAGGGGC	-0.178
CCGCTAGA	-0.225
GGGACTGA	-0.16
CTGGATGA	-0.0133
AGAAAGCT	0.142
AGTAGGAG	-0.156
GGGGTAAA	0.0473
AGAAGGTG	-0.104
AGGAAGCG	0.00275
ACGGACCT	-0.0269
GGCGGGCA	-0.102
AACAGTCC	-0.0882
AGATCGCA	0.0335
TCAGATAA	0.186
AGGCATCA	-0.194
CGAAGAGA	0.106
ACGCCCAG	0.0778
CGCCGACC	-0.0333
CCGCACCC	0.00697
CTATACAG	0.048
CGCACGAG	-0.174

Sequence	PBM E-score
AGTTCTTA	0.174
AAGACACT	-0.0345
AGGTCTGG	-0.167
ATATACCC	-0.0212
ATGAGAAT	0.167
CGCGAGCG	-0.0498
CACGTCTA	-0.0255
GGTTATAC	0.0388
CGGTGCGC	0.00393
CACTGCTC	0.0649
GTATGAAC	0.124
AATCACTG	0.0205
GCACCCTA	-0.0728
AATCCGTA	0.0292
AATCTTTC	-0.0314
GACATACC	-0.0711
ACACTCGG	0.151
GCTGGGAC	-0.154
ATACACTG	0.0143
